# Results published in article PMC11062894, “Protein-based bandpass filters for controlling cellular signaling with chemical inputs” (Nature Chemical Biology, 2023).
# Several values for one entry are separate records, joined by “and”; a condition that tells them apart may be missing. Equal entries are not always repeated. This continues a long series; more values of the same kind are listed elsewhere.
# Tested on: GEMS receptors with CBPvene (Bcl2–LD3 and Bcl2high variants), STAT3-driven SEAP in HEK293T cells
# Assay: GEMS SEAP reporter assay, CBPvene (Bcl2high, LD3-v and Bcl2-v variants) with venetoclax
# Assay type: cell-based
# Settings: for Normalized data (SEAP) / Raw data (SEAP): SuppFigure 8a
# [1] = Supp Fig 10c, Bcl2-v3, venetoclax 100 nM
# [2] = Supp Fig 10c, Bcl2-v3, venetoclax 316 nM
# [3] = Supp Fig 10c, Bcl2-v3, venetoclax 1000 nM
# [4] = Supp Fig 10c, Bcl2-v3, venetoclax 3160 nM
# [5] = Supp Fig 10c, Bcl2-v3, venetoclax 10000 nM
# [6] = Supp Fig 10c, Bcl2-v5, venetoclax 10 nM
# [7] = Supp Fig 10c, Bcl2-v5, venetoclax 31.6 nM
# [8] = Supp Fig 10c, Bcl2-v5, venetoclax 100 nM
# [9] = Supp Fig 10c, Bcl2-v5, venetoclax 316 nM
# [10] = Supp Fig 10c, Bcl2-v5, venetoclax 1000 nM
# [11] = Supp Fig 10c, Bcl2-v5, venetoclax 3160 nM
# [12] = Supp Fig 10c, Bcl2-v5, venetoclax 10000 nM
# [13] = Supp Fig 10c, Bcl2-v6, venetoclax 3.16 nM
# [14] = Supp Fig 10c, Bcl2-v6, venetoclax 10 nM
# [15] = Supp Fig 10c, Bcl2-v6, venetoclax 31.6 nM
# [16] = Supp Fig 10c, Bcl2-v6, venetoclax 100 nM
# [17] = Supp Fig 10c, Bcl2-v6, venetoclax 316 nM
# [18] = Supp Fig 10c, Bcl2-v6, venetoclax 1000 nM
# [19] = Supp Fig 10c, Bcl2-v6, venetoclax 3160 nM
# [20] = Supp Fig 10c, Bcl2-v6, venetoclax 10000 nM
# [21] = Supp Fig 10c, Bcl2, venetoclax 10 nM
# [22] = Supp Fig 10c, Bcl2, venetoclax 31.6 nM
# [23] = Supp Fig 10c, Bcl2, venetoclax 100 nM
# [24] = Supp Fig 10c, Bcl2, venetoclax 316 nM
# [25] = Supp Fig 10c, Bcl2, venetoclax 1000 nM
# [26] = Supp Fig 10c, Bcl2, venetoclax 3160 nM
# [27] = Supp Fig 10c, Bcl2, venetoclax 10000 nM
smiles,measurement,setting,value
CC1(C)CCC(CN2CCN(c3ccc(C(=O)NS(=O)(=O)c4ccc(NCC5CCOCC5)c([N+](=O)[O-])c4)c(Oc4cnc5[nH]ccc5c4)c3)CC2)=C(c2ccc(Cl)cc2)C1 [Venetoclax],SEAP,[1],33.497
same,SEAP normalized (max=100),[1],90.0123
same,SEAP,[2],33.007
same,SEAP normalized (max=100),[2],88.6957
same,SEAP,[3],11.8512
same,SEAP normalized (max=100),[3],31.8462
same,SEAP,[4],12.6786
same,SEAP normalized (max=100),[4],34.0697
same,SEAP,[5],7.771
same,SEAP normalized (max=100),[5],20.8817
same,SEAP,[6],24.348
same,SEAP normalized (max=100),[6],94.4802
same,SEAP,[7],16.5209
same,SEAP normalized (max=100),[7],64.1079
same,SEAP,[8],23.7437
same,SEAP normalized (max=100),[8],92.1352
same,SEAP,[9],10.445
same,SEAP normalized (max=100),[9],40.5307
same,SEAP,[10],11.7468
same,SEAP normalized (max=100),[10],45.5824
same,SEAP,[11],6.748
same,SEAP normalized (max=100),[11],26.1838
same,SEAP,[12],4.991
same,SEAP normalized (max=100),[12],19.367
same,SEAP,[13],49.3848
same,SEAP normalized (max=100),[13],26.7736
same,SEAP,[14],55.272
same,SEAP normalized (max=100),[14],29.9654
same,SEAP,[15],62.0564
same,SEAP normalized (max=100),[15],33.6435
same,SEAP,[16],135
same,SEAP normalized (max=100),[16],73.1893
same,SEAP,[17],184.453
same,SEAP normalized (max=100),[17],100
same,SEAP,[18],79.8215
same,SEAP normalized (max=100),[18],43.2747
same,SEAP,[19],33.0186
same,SEAP normalized (max=100),[19],17.9008
same,SEAP,[20],15.7293
same,SEAP normalized (max=100),[20],8.528
same,SEAP,[21],13.3529
same,SEAP normalized (max=100),[21],8.944
same,SEAP,[22],27.684
same,SEAP normalized (max=100),[22],18.5423
same,SEAP,[23],141.694
same,SEAP normalized (max=100),[23],94.904
same,SEAP,[24],133.43
same,SEAP normalized (max=100),[24],89.3694
same,SEAP,[25],149.302
same,SEAP normalized (max=100),[25],100
same,SEAP,[26],111.983
same,SEAP normalized (max=100),[26],75.004
same,SEAP,[27],32.3222
same,SEAP normalized (max=100),[27],21.6488
same,SEAP,"Supp Fig 10e, CBPVene-v5-Bcl2v2, venetoclax 1 nM",37.9718 and 36.6065 and 35.2814
same,SEAP,"Supp Fig 10e, CBPVene-v5-Bcl2v2, venetoclax 3.16 nM",37.1496 and 40.8191 and 38.9099
same,SEAP,"Supp Fig 10e, CBPVene-v5-Bcl2v2, venetoclax 10 nM",35.5651 and 41.8626 and 41.5876
same,SEAP,"Supp Fig 10e, CBPVene-v5-Bcl2v2, venetoclax 31.6 nM",68.9479 and 70.401 and 67.6966
same,SEAP,"Supp Fig 10e, CBPVene-v5-Bcl2v2, venetoclax 100 nM",149.797 and 156.012 and 191.601
same,SEAP,"Supp Fig 10e, CBPVene-v5-Bcl2v2, venetoclax 316 nM",182.798 and 192.307 and 223.486
same,SEAP,"Supp Fig 10e, CBPVene-v5-Bcl2v2, venetoclax 1000 nM",141.449 and 149.007 and 144.09
same,SEAP,"Supp Fig 10e, CBPVene-v5-Bcl2v2, venetoclax 3160 nM",64.398 and 62.9303 and 51.9708
same,SEAP,"Supp Fig 10e, CBPVene-v5-Bcl2v2, venetoclax 10000 nM",27.6798 and 21.7852 and 31.253
same,SEAP,"Supp Fig 10e, CBPVene-v5, venetoclax 3.16 nM",30.3563 and 26.3908 and 26.6345
same,SEAP,"Supp Fig 10e, CBPVene-v5, venetoclax 10 nM",53.0904 and 39.8802 and 44.9895
same,SEAP,"Supp Fig 10e, CBPVene-v5, venetoclax 31.6 nM",27.5418 and 25.4102 and 24.8086
same,SEAP,"Supp Fig 10e, CBPVene-v5, venetoclax 100 nM",135.101 and 106.556 and 113.538
same,SEAP,"Supp Fig 10e, CBPVene-v5, venetoclax 316 nM",523.324 and 430.565 and 490.151
same,SEAP,"Supp Fig 10e, CBPVene-v5, venetoclax 1000 nM",577.626 and 585.371 and 682.822
same,SEAP,"Supp Fig 10e, CBPVene-v5, venetoclax 3160 nM",461.236 and 467.711 and 499.656
same,SEAP,"Supp Fig 10e, CBPVene-v5, venetoclax 10000 nM",307.085 and 269.935 and 317.486
same,SEAP,"Supp Fig 10d, CBPVene-v4-Bcl2v2, venetoclax 1 nM",31.1918 and 36.3952 and 31.7379
same,SEAP,"Supp Fig 10d, CBPVene-v4-Bcl2v2, venetoclax 3.16 nM",31.4437 and 36.7806 and 28.5959
same,SEAP,"Supp Fig 10d, CBPVene-v4-Bcl2v2, venetoclax 10 nM",36.377 and 37.7021 and 37.2539
same,SEAP,"Supp Fig 10d, CBPVene-v4-Bcl2v2, venetoclax 31.6 nM",69.7518 and 80.5008 and 57.3972
same,SEAP,"Supp Fig 10d, CBPVene-v4-Bcl2v2, venetoclax 100 nM",211.871 and 227.425 and 220.652
same,SEAP,"Supp Fig 10d, CBPVene-v4-Bcl2v2, venetoclax 316 nM",290.788 and 368.506 and 302.291
same,SEAP,"Supp Fig 10d, CBPVene-v4-Bcl2v2, venetoclax 1000 nM",233.694 and 276.355 and 255.555
same,SEAP,"Supp Fig 10d, CBPVene-v4-Bcl2v2, venetoclax 3160 nM",128.558 and 149.488 and 139.957
same,SEAP,"Supp Fig 10d, CBPVene-v4-Bcl2v2, venetoclax 10000 nM",41.5078 and 45.6809 and 45.0373
same,SEAP,"Supp Fig 10d, CBPVene-v4, venetoclax 1 nM",25.8055 and 26.2397 and 18.4029
same,SEAP,"Supp Fig 10d, CBPVene-v4, venetoclax 3.16 nM",23.589 and 25.2624 and 18.3382
same,SEAP,"Supp Fig 10d, CBPVene-v4, venetoclax 10 nM",33.4586 and 32.0727 and 26.1315
same,SEAP,"Supp Fig 10d, CBPVene-v4, venetoclax 31.6 nM",100.765 and 111.541 and 57.7785
same,SEAP,"Supp Fig 10d, CBPVene-v4, venetoclax 100 nM",277.273 and 269.798 and 273.956
same,SEAP,"Supp Fig 10d, CBPVene-v4, venetoclax 316 nM",447.645 and 497.825 and 441.762
same,SEAP,"Supp Fig 10d, CBPVene-v4, venetoclax 1000 nM",651.243 and 597.631 and 579.613
same,SEAP,"Supp Fig 10d, CBPVene-v4, venetoclax 3160 nM",423.338 and 450.382 and 440.912
same,SEAP,"Supp Fig 10d, CBPVene-v4, venetoclax 10000 nM",277.442 and 279.687 and 277.816
same,Normalized data (SEAP),"LD3, venetoclax 10 nM",20.4521
same,Raw data (SEAP),"LD3, venetoclax 10 nM",16.842
same,Normalized data (SEAP),"LD3, venetoclax 31.6 nM",36.5125
same,Raw data (SEAP),"LD3, venetoclax 31.6 nM",30.0676
same,Normalized data (SEAP),"LD3v1, venetoclax 10 nM",76.5447
same,Raw data (SEAP),"LD3v1, venetoclax 10 nM",14.5584
same,Normalized data (SEAP),"LD3v1, venetoclax 31.6 nM",88.0905
same,Raw data (SEAP),"LD3v1, venetoclax 31.6 nM",16.7543
same,Normalized data (SEAP),"LD3v2, venetoclax 10 nM",20.2562
same,Raw data (SEAP),"LD3v2, venetoclax 10 nM",16.4463
same,Normalized data (SEAP),"LD3v2, venetoclax 31.6 nM",33.9875
same,Raw data (SEAP),"LD3v2, venetoclax 31.6 nM",27.5949
same,Normalized data (SEAP),"LD3v3, venetoclax 10 nM",83.7011
same,Raw data (SEAP),"LD3v3, venetoclax 10 nM",15.226
same,Normalized data (SEAP),"LD3v3, venetoclax 31.6 nM",89.4274
same,Raw data (SEAP),"LD3v3, venetoclax 31.6 nM",16.2677
